Assay results taken from the supplement of paper PMC11732987, “Enantioselective OTUD7B fragment discovery through chemoproteomics screening and high-throughput optimisation” (Communications Chemistry, 2025).
This is one part of the list. The data scatter; read single values as rough.

Protein sequences, listed by entry. Tags and fused reporters are not part of them. Lines headed by an entry give the natural chain unless they say otherwise; changes in a name come on top. Residues count along the entry.
UniProt Q8N201, 1815-1834: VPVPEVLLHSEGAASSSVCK
UniProt Q6DN90: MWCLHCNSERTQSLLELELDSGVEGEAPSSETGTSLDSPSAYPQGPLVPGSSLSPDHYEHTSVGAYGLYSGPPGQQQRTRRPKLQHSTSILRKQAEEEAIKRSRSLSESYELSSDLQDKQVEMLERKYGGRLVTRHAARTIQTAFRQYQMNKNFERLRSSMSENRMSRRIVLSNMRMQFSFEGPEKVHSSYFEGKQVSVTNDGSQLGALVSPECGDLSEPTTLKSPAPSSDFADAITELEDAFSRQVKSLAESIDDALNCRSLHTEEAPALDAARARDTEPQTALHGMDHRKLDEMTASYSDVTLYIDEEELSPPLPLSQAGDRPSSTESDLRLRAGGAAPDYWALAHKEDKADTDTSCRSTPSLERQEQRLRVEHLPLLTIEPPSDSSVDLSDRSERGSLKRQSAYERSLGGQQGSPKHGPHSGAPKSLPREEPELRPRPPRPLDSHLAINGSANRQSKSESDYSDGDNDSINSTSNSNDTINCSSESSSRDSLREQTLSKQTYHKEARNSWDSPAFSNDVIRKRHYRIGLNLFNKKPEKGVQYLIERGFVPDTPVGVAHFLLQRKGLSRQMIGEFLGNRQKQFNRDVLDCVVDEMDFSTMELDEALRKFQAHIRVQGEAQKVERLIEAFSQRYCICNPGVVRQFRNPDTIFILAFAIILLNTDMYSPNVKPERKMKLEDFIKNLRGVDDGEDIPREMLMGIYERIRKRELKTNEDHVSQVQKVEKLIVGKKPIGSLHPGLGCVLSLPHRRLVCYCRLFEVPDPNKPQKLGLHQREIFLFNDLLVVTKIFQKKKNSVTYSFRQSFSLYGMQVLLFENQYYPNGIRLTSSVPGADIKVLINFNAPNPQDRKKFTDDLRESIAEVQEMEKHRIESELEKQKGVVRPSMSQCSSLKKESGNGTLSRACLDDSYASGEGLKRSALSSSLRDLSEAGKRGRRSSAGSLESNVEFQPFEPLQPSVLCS
UniProt Q9NVR2: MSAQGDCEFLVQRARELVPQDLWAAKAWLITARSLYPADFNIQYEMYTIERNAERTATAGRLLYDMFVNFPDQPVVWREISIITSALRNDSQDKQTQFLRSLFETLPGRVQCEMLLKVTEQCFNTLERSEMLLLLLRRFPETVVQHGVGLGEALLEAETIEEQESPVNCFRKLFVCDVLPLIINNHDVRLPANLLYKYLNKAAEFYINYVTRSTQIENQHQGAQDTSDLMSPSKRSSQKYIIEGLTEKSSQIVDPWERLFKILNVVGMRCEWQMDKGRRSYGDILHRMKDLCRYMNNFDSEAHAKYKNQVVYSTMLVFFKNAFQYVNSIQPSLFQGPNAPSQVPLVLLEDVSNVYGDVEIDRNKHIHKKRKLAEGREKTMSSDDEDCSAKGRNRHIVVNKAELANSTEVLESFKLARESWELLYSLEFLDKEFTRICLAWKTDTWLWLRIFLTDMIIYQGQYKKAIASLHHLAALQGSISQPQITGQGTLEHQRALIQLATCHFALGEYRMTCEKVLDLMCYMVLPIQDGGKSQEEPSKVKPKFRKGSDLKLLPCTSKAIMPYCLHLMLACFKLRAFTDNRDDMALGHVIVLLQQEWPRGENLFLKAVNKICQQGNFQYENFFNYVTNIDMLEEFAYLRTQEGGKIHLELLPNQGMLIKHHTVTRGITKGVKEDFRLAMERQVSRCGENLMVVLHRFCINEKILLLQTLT
UniProt P42858: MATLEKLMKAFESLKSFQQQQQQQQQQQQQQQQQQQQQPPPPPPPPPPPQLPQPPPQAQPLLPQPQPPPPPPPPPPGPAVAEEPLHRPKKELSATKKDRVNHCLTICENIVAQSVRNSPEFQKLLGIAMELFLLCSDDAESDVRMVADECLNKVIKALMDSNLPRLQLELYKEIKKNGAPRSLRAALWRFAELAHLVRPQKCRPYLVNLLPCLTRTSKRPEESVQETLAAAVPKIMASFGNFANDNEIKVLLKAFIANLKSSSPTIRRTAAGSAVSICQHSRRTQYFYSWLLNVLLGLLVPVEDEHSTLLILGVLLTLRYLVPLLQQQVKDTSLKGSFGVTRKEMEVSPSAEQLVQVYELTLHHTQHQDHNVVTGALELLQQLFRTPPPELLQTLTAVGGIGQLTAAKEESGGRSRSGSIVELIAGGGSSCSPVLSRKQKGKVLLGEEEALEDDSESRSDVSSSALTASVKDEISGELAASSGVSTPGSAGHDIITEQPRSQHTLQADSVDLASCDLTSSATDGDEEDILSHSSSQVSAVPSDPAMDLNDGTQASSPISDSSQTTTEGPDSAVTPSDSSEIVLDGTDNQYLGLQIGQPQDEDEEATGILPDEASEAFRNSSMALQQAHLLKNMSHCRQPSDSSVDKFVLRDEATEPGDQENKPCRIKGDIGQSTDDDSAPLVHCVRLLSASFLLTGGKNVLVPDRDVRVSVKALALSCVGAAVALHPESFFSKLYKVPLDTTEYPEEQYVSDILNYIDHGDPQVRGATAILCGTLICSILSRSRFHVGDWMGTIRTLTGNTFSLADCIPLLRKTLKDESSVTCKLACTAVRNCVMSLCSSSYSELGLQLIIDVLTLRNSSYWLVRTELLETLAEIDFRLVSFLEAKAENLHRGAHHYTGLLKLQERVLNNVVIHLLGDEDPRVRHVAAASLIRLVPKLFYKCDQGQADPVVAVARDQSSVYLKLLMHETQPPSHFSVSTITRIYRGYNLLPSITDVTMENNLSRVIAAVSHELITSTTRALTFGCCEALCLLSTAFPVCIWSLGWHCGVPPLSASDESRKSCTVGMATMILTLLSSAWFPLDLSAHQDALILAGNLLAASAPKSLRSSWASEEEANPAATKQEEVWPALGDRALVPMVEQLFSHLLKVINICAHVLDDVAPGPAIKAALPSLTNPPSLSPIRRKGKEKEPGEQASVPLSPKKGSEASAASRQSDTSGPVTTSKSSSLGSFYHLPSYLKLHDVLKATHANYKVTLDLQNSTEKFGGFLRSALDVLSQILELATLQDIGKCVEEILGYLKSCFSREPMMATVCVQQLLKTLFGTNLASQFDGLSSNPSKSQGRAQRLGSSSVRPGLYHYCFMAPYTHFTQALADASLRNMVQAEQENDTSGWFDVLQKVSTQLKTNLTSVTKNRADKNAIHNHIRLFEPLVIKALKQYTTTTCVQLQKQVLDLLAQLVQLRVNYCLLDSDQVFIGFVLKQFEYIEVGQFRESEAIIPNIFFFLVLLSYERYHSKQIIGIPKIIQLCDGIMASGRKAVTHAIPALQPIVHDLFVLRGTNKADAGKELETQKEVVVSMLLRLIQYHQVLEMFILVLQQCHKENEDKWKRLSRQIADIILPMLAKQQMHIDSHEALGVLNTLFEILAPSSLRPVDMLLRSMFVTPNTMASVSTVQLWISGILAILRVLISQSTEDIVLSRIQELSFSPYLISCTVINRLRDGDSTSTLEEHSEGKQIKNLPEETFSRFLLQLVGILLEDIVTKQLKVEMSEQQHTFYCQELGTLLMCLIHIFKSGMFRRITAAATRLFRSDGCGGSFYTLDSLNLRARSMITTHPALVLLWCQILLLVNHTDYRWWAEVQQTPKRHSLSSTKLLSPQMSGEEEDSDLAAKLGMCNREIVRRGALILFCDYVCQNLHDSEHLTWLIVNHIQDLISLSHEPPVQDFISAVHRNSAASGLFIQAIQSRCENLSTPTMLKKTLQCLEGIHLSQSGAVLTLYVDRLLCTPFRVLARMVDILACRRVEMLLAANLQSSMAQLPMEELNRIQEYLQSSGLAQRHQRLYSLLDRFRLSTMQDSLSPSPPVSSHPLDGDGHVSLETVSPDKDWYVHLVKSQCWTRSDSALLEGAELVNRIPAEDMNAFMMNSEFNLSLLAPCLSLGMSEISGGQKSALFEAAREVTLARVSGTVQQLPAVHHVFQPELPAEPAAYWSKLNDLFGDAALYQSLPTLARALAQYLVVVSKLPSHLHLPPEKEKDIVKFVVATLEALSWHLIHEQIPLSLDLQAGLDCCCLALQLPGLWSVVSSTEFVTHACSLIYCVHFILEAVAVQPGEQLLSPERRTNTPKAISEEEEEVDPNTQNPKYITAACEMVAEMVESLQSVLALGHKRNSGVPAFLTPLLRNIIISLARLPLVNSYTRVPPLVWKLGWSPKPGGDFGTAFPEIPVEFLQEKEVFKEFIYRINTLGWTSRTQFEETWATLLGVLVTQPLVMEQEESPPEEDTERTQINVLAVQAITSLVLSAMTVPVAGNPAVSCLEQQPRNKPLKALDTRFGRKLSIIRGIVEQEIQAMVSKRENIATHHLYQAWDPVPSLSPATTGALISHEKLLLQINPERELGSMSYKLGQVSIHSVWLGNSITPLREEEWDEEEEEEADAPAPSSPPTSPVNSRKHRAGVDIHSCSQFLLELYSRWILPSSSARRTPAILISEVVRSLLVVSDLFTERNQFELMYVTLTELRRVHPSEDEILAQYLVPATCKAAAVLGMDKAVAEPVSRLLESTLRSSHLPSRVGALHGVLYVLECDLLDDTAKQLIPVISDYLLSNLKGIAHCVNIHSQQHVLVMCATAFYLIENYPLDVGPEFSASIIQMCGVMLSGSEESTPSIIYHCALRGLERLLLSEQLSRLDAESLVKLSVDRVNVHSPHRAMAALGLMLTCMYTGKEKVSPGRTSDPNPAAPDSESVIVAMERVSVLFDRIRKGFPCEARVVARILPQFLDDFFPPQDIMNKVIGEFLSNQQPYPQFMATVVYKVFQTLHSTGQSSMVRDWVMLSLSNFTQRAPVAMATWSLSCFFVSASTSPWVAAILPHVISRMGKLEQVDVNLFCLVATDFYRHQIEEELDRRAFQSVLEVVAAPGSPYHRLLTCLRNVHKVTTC
UniProt Q8IU81, 340-368: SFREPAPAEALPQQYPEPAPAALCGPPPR
UniProt Q659A1: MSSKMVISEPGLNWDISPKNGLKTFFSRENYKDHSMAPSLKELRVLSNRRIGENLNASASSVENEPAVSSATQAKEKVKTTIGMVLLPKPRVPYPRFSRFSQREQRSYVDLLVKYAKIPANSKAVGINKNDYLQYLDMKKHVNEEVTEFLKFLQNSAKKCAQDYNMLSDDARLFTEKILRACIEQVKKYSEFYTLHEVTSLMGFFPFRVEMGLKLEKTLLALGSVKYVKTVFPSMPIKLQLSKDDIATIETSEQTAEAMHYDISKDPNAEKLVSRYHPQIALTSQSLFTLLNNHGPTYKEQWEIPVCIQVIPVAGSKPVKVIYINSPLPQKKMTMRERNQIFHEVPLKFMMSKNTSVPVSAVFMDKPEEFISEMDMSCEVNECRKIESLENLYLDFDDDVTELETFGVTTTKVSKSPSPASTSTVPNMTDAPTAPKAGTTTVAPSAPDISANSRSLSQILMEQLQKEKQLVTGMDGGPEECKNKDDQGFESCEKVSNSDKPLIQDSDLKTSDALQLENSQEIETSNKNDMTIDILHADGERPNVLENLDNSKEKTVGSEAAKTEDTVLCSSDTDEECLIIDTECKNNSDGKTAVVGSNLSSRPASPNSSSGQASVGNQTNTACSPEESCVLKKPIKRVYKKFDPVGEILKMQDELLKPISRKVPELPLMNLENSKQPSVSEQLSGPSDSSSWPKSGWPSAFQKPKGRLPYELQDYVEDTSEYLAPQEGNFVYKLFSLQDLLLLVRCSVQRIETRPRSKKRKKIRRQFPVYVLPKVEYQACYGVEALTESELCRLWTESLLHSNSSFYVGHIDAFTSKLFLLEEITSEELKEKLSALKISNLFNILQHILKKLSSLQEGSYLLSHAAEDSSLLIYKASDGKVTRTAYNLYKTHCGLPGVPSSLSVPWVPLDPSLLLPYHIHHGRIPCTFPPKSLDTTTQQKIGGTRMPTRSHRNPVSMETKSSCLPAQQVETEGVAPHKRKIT

What was measured:
[1] = compound: ClCC(=O)N[C@@H]1CCCc2ccccc12; experiment: log2 mean competition ratio of IA-DTB cysteine labelling (DMSO/compound) (log2 ratio); higher = stronger cysteine engagement by compound; settings: treatment time: 4 h, cell line lysate: HEK293T
Experimental: (§1)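 IA-DTB competitive cysteine chemoproteomics in HEK293T RIPA lysate. Lysates were treated with compound 29 or 30 at 50 or 200 µM for 4 h, then IA-DTB (500 µM, 1 h), trypsin-digested, NeutrAvidin-enriched and analysed by diaPASEF. Competition ratio = intensity DMSO / intensity compound (n=4 treated, n=64 DMSO); binding: mean log2 CR ≥ 1 and p ≤ 0.05 plus QC filters. Target is the cysteine site.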

[2] = compound: ClCC(=O)N[C@H]1CCCc2ccccc12; experiment: as above; settings: treatment time: 4 h, cell line lysate: HEK293T
Experimental: as §1

Target	log2 mean competition ratio ([1]; 50 µM)	log2 mean competition ratio ([1]; 200 µM)	log2 mean competition ratio ([2]; 50 µM)	log2 mean competition ratio ([2]; 200 µM)
INTS1 C1833 (UniProt Q8N201)	-0.0189	0.353	-0.447	0.277
ICE1 C531 (UniProt Q9Y2F5)	0.0301	0.119	-0.116	-0.0154
IQSEC1 C906 (UniProt Q6DN90)	0.167	0.257	-0.307	0.293
INTS10 C7 (UniProt Q9NVR2)	-0.0674	-0.0414	0.306	0.225
HTT C278 (UniProt P42858)	0.216	0.108	0.229	0.089
HUWE1 C790	-0.337	-0.0931	0.164	-0.0916
INPP4A C854 (UniProt Q96PE3)	0.139	0.161	-0.267	0.176
IPO5 C972	-0.134	0.113	-0.238	0.0895
IRF2BP1 C363 (UniProt Q8IU81)	0.0149	-0.0481	0.359	0.0394
ICE2 C492 (UniProt Q659A1)	-0.134	0.477	-0.203	0.782
